# Reference: PubChem BioAssay AID248 (DTP/NCI, 2004)
# The list does not hold the whole screen: it gathers tests that were run many times, whatever their T/C, doses with no T/C, and many T/C values between a quarter and a half above the control. Other doses and runs of a compound stand elsewhere. T/C gives the treated animals as a percentage of the vehicle group. Some entries give survivors of the animals treated and no T/C: the source holds a T/C of zero for them, seemingly a mark for toxic or unscored doses. Some doses without a T/C left all or most animals alive at the check, yet need not have been tolerated: survival well below the control is almost never listed, so the zero probably covers shortened survival too. Survivors were counted at the toxicity check, usually on the fifth day, unless a day is given; later deaths do not show. Schedules are NCI's codes, read here as Q, the interval in days (D) or hours (H), X, the number of doses. Some schedules carry Z or #; the key to these is not given. Some structures stand for samples that the source files as different forms (salt, stereo form or complex); doses refer to the form tested. Some entries hold several experiments; the results are listed from low to high. For survival time, the PubChem record calls one and a half times the control and up active, and a quarter to a half above the control has no call in these data; cut-offs in other NCI protocols can differ. Some T/C values are followed by the survivors on the day toxicity was checked, most often the fifth; without a count, all were alive then.
# Test system: L1210 leukemia ip in BDF1 mice, survival T/C
# Test: NCI In Vivo Anticancer Drug Screen. Data for tumor model L1210 Leukemia (intraperitoneal) in B6D2F1 (BDF1) mice
# Conditions: T/C endpoint: mean survival time, higher T/C = longer survival
# [1] = dose: 100.0 mg/kg/injection, schedule: Q04DX002 (ip), vehicle: saline
# [2] = dose: 100.0 mg/kg/injection, schedule: Q04DX003 (ip), vehicle: saline
# [3] = dose: 200.0 mg/kg/injection, schedule: Q04DX002 (ip), vehicle: saline
# [4] = dose: 200.0 mg/kg/injection, schedule: Q04DX003 (ip), vehicle: saline
# [5] = dose: 400.0 mg/kg/injection, schedule: Q04DX002 (ip), vehicle: saline
# [6] = dose: 400.0 mg/kg/injection, schedule: Q04DX003 (ip), vehicle: saline
# [7] = dose: 400.0 mg/kg/injection, schedule: Q01DX001 (ip), vehicle: saline
# [8] = dose: 112.0 mg/kg/injection, schedule: Q01DX001 (oral), vehicle: saline
smiles,measurement,setting,value
CC(c1ccccc1)n1ccnc1CC#N (stereo not drawn),survivor count,"dose: 100.0 mg/kg/injection, schedule: Q01DX001 (ip), vehicle: saline",0 of 6
same,T/C,[1],121 % of control [2 of 3 alive]
same,survivor count,[1],"1 of 3, 2 of 6, 3 of 6, 2 of 3"
same,survivor count,[2],0 of 6 and 1 of 6
same,survivor count,[3],0 of 3 and 0 of 6
same,survivor count,[4],0 of 6
same,survivor count,[5],0 of 3 and 0 of 6
same,survivor count,[6],0 of 6
Cc1n(C(C)C)c2c([n+]1C)C(=O)c1ccccc1C2=O,survivor count,"dose: 3.12 mg/kg/injection, schedule: Q04DX003 (ip), vehicle: acetone",2 of 6
same,survivor count,"dose: 5.31 mg/kg/injection, schedule: Q01DX009 (ip), vehicle: acetone",2 of 6
same,survivor count,"dose: 6.25 mg/kg/injection, schedule: Q04DX003 (ip), vehicle: acetone",0 of 6
same,survivor count,"dose: 12.5 mg/kg/injection, schedule: Q04DX003 (ip), vehicle: saline",0 of 6
same,survivor count,"dose: 25.0 mg/kg/injection, schedule: Q04DX003 (ip), vehicle: saline",0 of 6
same,survivor count,"dose: 50.0 mg/kg/injection, schedule: Q04DX003 (ip), vehicle: saline",0 of 6
same,survivor count,[2],0 of 6
same,survivor count,[4],0 of 6
same,survivor count,[6],0 of 6
N#CC(SC(=N)N)c1ccccc1 (stereo not drawn),survivor count,[7],0 of 6
CC(=O)NC1=C(N2CC2)C(=O)C(NC(C)=O)=C(N2CC2)C1=O,T/C,"dose: 0.13 mg/kg/injection, schedule: Q01DX Z (ip), vehicle: saline",131 % of control
same,T/C,"dose: 0.25 mg/kg/injection, schedule: Q01DX006 (iv), vehicle: saline",136 % of control
same,T/C,"dose: 0.25 mg/kg/injection, schedule: Q01DX Z (ip), vehicle: saline",143 % of control
same,T/C,"dose: 0.5 mg/kg/injection, schedule: Q01DX006 (iv), vehicle: saline",125 and 134 % of control
same,T/C,"dose: 0.5 mg/kg/injection, schedule: Q01DX Z (im), vehicle: saline",132 % of control
same,T/C,"dose: 0.5 mg/kg/injection, schedule: Q01DX Z (sc), vehicle: saline",139 % of control
same,T/C,"dose: 0.75 mg/kg/injection, schedule: Q03DX006 (oral), vehicle: saline",138 % of control
same,T/C,"dose: 1.0 mg/kg/injection, schedule: Q01DX006 (iv), vehicle: saline",143 % of control
same,T/C,"dose: 1.0 mg/kg/injection, schedule: Q01DX Z (im), vehicle: saline",147 % of control
same,T/C,"dose: 1.0 mg/kg/injection, schedule: Q01DX Z (ip), vehicle: saline",145 % of control
same,T/C,"dose: 1.5 mg/kg/injection, schedule: Q01DX Z (ip), vehicle: carboxymethylcellulose (CMC)",131 % of control
same,T/C,"dose: 2.0 mg/kg/injection, schedule: Q01DX Z (ip), vehicle: saline",142 % of control
same,T/C,"dose: 2.0 mg/kg/injection, schedule: Q01DX Z (sc), vehicle: saline",144 % of control
same,T/C,"dose: 2.0 mg/kg/injection, schedule: Q#A X Z (oral), vehicle: saline",145 % of control
same,survivor count,"dose: 2.8 mg/kg/injection, schedule: Q01DX Z (ip), vehicle: other",7 of 7
same,survivor count,"dose: 4.0 mg/kg/injection, schedule: Q01DX Z (im), vehicle: saline",6 of 6
same,survivor count,"dose: 4.0 mg/kg/injection, schedule: Q01DX Z (ip), vehicle: other",4 of 7
same,survivor count,"dose: 4.0 mg/kg/injection, schedule: Q01DX Z (ip), vehicle: saline",6 of 6
same,T/C,"dose: 4.0 mg/kg/injection, schedule: Q01DX Z (oral), vehicle: saline",128 and 145 % of control
same,T/C,"dose: 4.0 mg/kg/injection, schedule: Q#A X Z (oral), vehicle: saline",145 % of control
same,survivor count,"dose: 5.0 mg/kg/injection, schedule: Q01DX Z (ip), vehicle: carboxymethylcellulose (CMC)",5 of 6
same,T/C,"dose: 6.0 mg/kg/injection, schedule: Q03DX006 (oral), vehicle: saline",130 % of control
same,T/C,"dose: 7.0 mg/kg/injection, schedule: Q01DX001 (oral), vehicle: saline",127 % of control [5 of 6 alive]
same,survivor count,"dose: 7.0 mg/kg/injection, schedule: Q07DX002 (oral), vehicle: saline",3 of 6
same,survivor count,"dose: 7.4 mg/kg/injection, schedule: Q01DX Z (ip), vehicle: carboxymethylcellulose (CMC)",6 of 6
same,survivor count,"dose: 8.0 mg/kg/injection, schedule: Q01DX006 (iv), vehicle: saline",2 of 6
same,survivor count,"dose: 8.0 mg/kg/injection, schedule: Q01DX Z (ip), vehicle: saline",2 of 6
same,survivor count,"dose: 10.0 mg/kg/injection, schedule: Q01DX Z (ip), vehicle: carboxymethylcellulose (CMC)",4 of 6
same,T/C,"dose: 12.0 mg/kg/injection, schedule: Q03DX006 (oral), vehicle: saline",136 % of control
same,T/C,"dose: 14.0 mg/kg/injection, schedule: Q01DX001 (oral), vehicle: saline",131 [5 of 6 alive] and 138 % of control
same,T/C,"dose: 14.0 mg/kg/injection, schedule: Q07DX003 (oral), vehicle: saline",142 % of control
same,T/C,"dose: 24.0 mg/kg/injection, schedule: Q03DX006 (oral), vehicle: saline",145 % of control [5 of 6 alive]
same,T/C,"dose: 28.0 mg/kg/injection, schedule: Q01DX001 (oral), vehicle: saline",130 and 145 % of control
same,survivor count,"dose: 32.0 mg/kg/injection, schedule: Q#A X Z (oral), vehicle: saline",5 of 6
same,T/C,"dose: 48.0 mg/kg/injection, schedule: Q03DX006 (oral), vehicle: saline",142 % of control
same,T/C,"dose: 56.0 mg/kg/injection, schedule: Q01DX001 (oral), vehicle: saline",139 and 143 % of control [5 of 6 alive]
same,T/C,"dose: 56.0 mg/kg/injection, schedule: Q07DX003 (oral), vehicle: saline",140 % of control [5 of 6 alive]
same,survivor count,"dose: 64.0 mg/kg/injection, schedule: Q#A X Z (oral), vehicle: saline",3 of 6
same,survivor count,"dose: 96.0 mg/kg/injection, schedule: Q03DX006 (oral), vehicle: saline",2 of 6
same,T/C,[8],127 % of control
same,survivor count,[8],3 of 6
same,survivor count,"dose: 192.0 mg/kg/injection, schedule: Q03DX006 (oral), vehicle: saline",2 of 6
same,survivor count,"dose: 384.0 mg/kg/injection, schedule: Q03DX006 (oral), vehicle: saline",0 of 6
C/C(=C1/SC(=S)NC1=O)c1ccccc1,survivor count,"dose: 200.0 mg/kg/injection, schedule: Q01DX001 (ip), vehicle: saline",1 of 6
same,survivor count,[7],1 of 6
Cc1cnc(NCCCC(N)C(=O)O)nc1 (stereo not drawn),survivor count,[5],3 of 3
CN1CCC2(CC1)C(=O)N(Cc1ccccc1)C(=O)C2c1ccccc1 (stereo not drawn),survivor count,"dose: 50.0 mg/kg/injection, schedule: Q04DX002 (ip), vehicle: saline",3 of 3
same,survivor count,[3],0 of 3
same,survivor count,"dose: 400.0 mg/kg/injection, schedule: Q04DX002 (ip), vehicle: Klucel (hydroxypropylcellulose) (HPC)",0 of 3
same,survivor count,[5],0 of 3
c1cc2c(c3c1CCCC3)CCCC2,survivor count,"dose: 200.0 mg/kg/injection, schedule: Q01DX009 (ip), vehicle: saline",5 of 6
same,survivor count,[6],3 of 6
N#CCC(c1ccccc1)C(C#N)c1ccccc1 (stereo not drawn),survivor count,"dose: 300.0 mg/kg/injection, schedule: Q01DX001 (ip), vehicle: carboxymethylcellulose (CMC)",3 of 6
O=C1c2ccccc2C(=O)c2c(NCCNCCO)ccc(NCCNCCO)c21,T/C,"dose: 1.0 mg/kg/injection, schedule: Q01DX009 (ip), vehicle: saline with Tween-80",147 % of control
same,survivor count,"dose: 64.0 mg/kg/injection, schedule: Q01DX009 (ip), vehicle: Klucel (hydroxypropylcellulose) (HPC)",10 of 10
same,survivor count,"dose: 64.0 mg/kg/injection, schedule: Q01DX009 (ip), vehicle: saline with Tween-80",6 of 6
same,survivor count,"dose: 64.0 mg/kg/injection, schedule: Q01DX009 (ip), vehicle: water",10 of 10
O=C(NC(=S)Nc1cccc(Cl)c1)c1ccccc1,survivor count,"dose: 400.0 mg/kg/injection, schedule: Q01DX009 (ip), vehicle: Klucel (hydroxypropylcellulose) (HPC)",0 of 6
O=C(O)C(Cc1ccsc1)C(=O)O,survivor count,[7],0 of 4
Nc1c(C(=O)O)ccc2c1C(=O)c1ccccc1C2=O,survivor count,"dose: 400.0 mg/kg/injection, schedule: Q04DX003 (ip), vehicle: gum acacia",0 of 6
